Reference: paper doi:10.1101/2025.09.02.673742
Where two headings read alike, the source gives them in different places. These are yes or no findings as the source states them, for the method shown. For some assays here: Binding seen in cells or lysates may run through a third protein. Some results given as binding are weak or reduced against the parent protein; the word gives no strength. Sequences can lack the tags named with a protein.

Protein sequences, listed by entry. Tags and fused reporters are not part of them.
UniProt Q9UT24: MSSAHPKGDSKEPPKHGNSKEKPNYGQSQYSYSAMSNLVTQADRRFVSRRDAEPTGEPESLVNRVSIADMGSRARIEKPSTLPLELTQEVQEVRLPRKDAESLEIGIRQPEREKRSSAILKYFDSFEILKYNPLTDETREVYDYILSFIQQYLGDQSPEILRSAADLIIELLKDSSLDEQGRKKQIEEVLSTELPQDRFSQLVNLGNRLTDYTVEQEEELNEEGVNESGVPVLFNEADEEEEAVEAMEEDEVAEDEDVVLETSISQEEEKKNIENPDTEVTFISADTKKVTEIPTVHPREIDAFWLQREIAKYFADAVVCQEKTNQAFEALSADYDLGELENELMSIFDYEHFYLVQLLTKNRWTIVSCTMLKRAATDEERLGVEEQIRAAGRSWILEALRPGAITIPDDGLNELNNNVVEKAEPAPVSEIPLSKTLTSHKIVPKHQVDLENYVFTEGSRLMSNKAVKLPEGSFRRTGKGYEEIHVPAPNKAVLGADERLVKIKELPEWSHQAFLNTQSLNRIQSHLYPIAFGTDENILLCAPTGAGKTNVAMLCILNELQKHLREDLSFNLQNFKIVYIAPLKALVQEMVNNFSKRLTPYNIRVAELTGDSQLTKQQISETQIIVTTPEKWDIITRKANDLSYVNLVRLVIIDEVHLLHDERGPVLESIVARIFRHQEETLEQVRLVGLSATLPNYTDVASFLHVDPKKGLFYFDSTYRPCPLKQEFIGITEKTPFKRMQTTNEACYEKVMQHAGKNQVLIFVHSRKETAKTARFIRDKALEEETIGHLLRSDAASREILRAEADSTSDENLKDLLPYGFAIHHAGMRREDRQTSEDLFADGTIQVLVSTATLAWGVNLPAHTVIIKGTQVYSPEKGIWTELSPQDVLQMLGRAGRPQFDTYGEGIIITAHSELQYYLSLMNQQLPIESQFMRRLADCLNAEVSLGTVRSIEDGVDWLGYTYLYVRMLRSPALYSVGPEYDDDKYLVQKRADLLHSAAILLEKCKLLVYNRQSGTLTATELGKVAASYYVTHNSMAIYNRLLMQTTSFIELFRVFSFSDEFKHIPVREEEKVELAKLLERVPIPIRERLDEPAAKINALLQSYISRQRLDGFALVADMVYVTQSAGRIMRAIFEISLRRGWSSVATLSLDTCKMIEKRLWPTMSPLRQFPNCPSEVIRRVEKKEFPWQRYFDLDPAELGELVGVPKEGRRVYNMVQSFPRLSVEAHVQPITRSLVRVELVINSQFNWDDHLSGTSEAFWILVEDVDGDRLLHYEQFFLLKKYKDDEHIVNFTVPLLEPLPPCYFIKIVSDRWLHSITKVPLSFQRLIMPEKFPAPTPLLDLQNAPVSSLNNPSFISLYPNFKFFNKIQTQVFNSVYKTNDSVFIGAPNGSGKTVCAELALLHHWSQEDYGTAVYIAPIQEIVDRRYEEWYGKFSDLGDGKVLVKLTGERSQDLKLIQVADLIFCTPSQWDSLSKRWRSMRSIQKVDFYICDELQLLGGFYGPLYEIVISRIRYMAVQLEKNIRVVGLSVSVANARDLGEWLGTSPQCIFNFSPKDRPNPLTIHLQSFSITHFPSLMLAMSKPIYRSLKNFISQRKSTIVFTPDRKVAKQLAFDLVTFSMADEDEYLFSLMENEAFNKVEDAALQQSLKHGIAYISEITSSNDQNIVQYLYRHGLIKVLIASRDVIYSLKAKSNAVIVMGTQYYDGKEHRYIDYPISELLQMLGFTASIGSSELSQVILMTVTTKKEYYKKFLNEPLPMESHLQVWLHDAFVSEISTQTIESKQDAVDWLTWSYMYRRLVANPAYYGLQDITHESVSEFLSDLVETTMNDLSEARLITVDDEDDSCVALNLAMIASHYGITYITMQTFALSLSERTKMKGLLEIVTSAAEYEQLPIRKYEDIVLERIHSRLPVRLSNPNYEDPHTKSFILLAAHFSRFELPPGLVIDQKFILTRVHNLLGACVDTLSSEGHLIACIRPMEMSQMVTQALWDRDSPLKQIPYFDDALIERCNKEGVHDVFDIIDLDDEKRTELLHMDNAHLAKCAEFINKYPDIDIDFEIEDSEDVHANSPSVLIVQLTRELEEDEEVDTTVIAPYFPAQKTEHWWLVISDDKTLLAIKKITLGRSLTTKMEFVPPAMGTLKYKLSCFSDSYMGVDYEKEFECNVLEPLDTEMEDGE

Key:
[1] = biological target: T1, GST-Tls1 (S. pombe) (UniProt Q10148); assay: pull-down
T1 sequence: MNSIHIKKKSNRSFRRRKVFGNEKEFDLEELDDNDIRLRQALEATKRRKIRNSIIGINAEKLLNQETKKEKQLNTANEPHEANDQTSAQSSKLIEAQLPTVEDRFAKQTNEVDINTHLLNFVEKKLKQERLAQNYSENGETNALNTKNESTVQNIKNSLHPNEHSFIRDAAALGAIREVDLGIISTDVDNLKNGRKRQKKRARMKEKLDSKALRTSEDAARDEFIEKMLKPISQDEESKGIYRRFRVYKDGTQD

[2] = biological target: T1, GST-Tls1 (S. pombe); assay: pull-down; remark: listed apart in the source
[3] = biological target: Brr2 (entire ORF, yeast two-hybrid fusion) (S. pombe) (UniProt Q9UT24); assay: two-hybrid

Molecule	binding [2]	binding [3]	also measured
Flag-tagged Brr2 (from UniProt Q9UT24 1-2176)	–	–	binding [1]: binds
Flag-tagged Prp19 (protein, UniProt O14011 1-488) MFCSISGETPKEPVISRVSGNVYEKRLIEQVIRETSKDPVTQQECTLEDLVPVKVPDFVRPRPPSATSLPALLSLFQEEWDSVALEQFELRRNLTETKQELSTALYSLDAALRVISRLTKERDEAREALAKFSDNIGTVSSKTIEVQEVEMGESDDQLKTSLRSTVEKTFQELSSKRKRTKLQPKWATDDAVSQLLQATPSTILENLETESTTSFFPSPENSSFVLCLHKDELLCLDIQSNSTLKIFEGSALACCWLTSSKIAVATADAISIFEFPVSSSGLQSVGEPTSSIPIDEKVNFLQAHPSGEYLLAASNEKCYIFSLKSQVYNITVAQHITSLAVHPDGNLFVAGLENGELRFFETSSGNELTKFGPHSSPVKTLQFGENGYWLVVTTNDDSDIFIWDLRKSELVQKIPLQTKVAAVSLDITSQLLVSSDGETLYVHIYVKSSKSWRCMSQTHVSSISNLVWLNELHQLLFSTSNGAILRLG	binds weakly	–	–
Tls1 (entire ORF, yeast two-hybrid fusion) (protein, UniProt Q10148 1-254) MNSIHIKKKSNRSFRRRKVFGNEKEFDLEELDDNDIRLRQALEATKRRKIRNSIIGINAEKLLNQETKKEKQLNTANEPHEANDQTSAQSSKLIEAQLPTVEDRFAKQTNEVDINTHLLNFVEKKLKQERLAQNYSENGETNALNTKNESTVQNIKNSLHPNEHSFIRDAAALGAIREVDLGIISTDVDNLKNGRKRQKKRARMKEKLDSKALRTSEDAARDEFIEKMLKPISQDEESKGIYRRFRVYKDGTQD	–	binds	–
Flag-tagged Rap1 (protein, UniProt Q96TL7 1-693) MSFTFTKSDGSSILFAVSKNFEHIRGFKNAIDCFKGKIEFLSFDKVDPTKHDYYLVAEDERVSDLDIPKGFFERNPEFRHKMLKIAWITQCIEQGKLLPTESFEVELNQDDVNRTHDGFRKRELFTLEDEKILIDHVHKNDINRFGTKVYEELARKYPQHSLESWRQHYKYMKKRLPPVSDSDESNYCQRIIVKPYSSQKDYTQSTHEQTLSSPISKSASVSKSENKALVNNKRYSDSYFYFSKMRRISIDVDYVDEDLNLINAYLSQFGKKRSLNELCALLSRRFSNRHTFSEWRALFMHFFPFINSEGVDPAILSDRETSAMLDETSDNEVADIDDQMIERKYLFSASEPNTVKSTNRLIFSERKAYAADDSIDNTPSKVPIVNSLSDPRTNRPFFYSNPDSMYRSISNPLHLVDSQHLSPLNRKTHFNNPIGQPQFTCLDDHEKTLRETSFRSLDDMSLRKSNSDNIFVKPGEDLEIPLLSDYSDSENISEKSSDDEEAFEKQVTSSYSSPIKVKSQGKSSKGSSGLDVREHEGSDDDAEVFVDRSPESFGATKVAHTSLEGNAASHKKVEENMQQPVTKKQKKYRMVNEEAHTGPTIIIPSDNNEKVTTLPAGHVPSEEKGKFINLAMHELQNEVSILRSSVNHREVDEAIDNILRYTNSTEQQFLEAMESTGGRVRIAIAKLLSKQTS	no binding	–	–
Cay1 (entire ORF, yeast two-hybrid fusion) (protein, UniProt O14342 1-517) MAFRDSTRDFNRSRPEKRHASRSSSPRSFRPSNQNARANYNLPRVRDAMKEEERSRETKEMQEREFLRLQQLRRAIIRLKNDRSKPIDKLLVSVYLMPGPEWEENGEKNSIDFGTVDMFDPLSVIQSYKAEDLEEISRNIGDIQQLETNQCRLTYWKYVKMLVNSRMEHNKVGQFSRGLKVVAGEVQRILAPKSFEQLEQLEAQIQKKLKSNVPLDTDYWVDLLNSLKSYKAIAYLKKTFNEELQIRKNKLDNEEWDKAFSDAKKLSNMKDREEKLYIVPIDPKPILRAQAIPRRIQPEEQADYEKELNDHVNIVKSSTYIPISIPTQKQKPTLPKNSNLINEDEFSIANRARLEREYLQSDDAEEQEMLGDYVEGQTRVVNENGVTLKKPHYFNRVLLGFEWNSYNQAHFNEAHPPPKAVQGYRFNVFYPDLIGTGRAPTYRIERTRRKNKSDTTDLQDDVCIIRFIAGEPYQDIAFSIVDKDWDYSAKRDHGFKSSFDNGVLSLHFRFKKLHHRR	–	no binding	–
